Some of the results follow.
What was measured:
Assay in all cases: log2 fold change, soluble protein after heating vs DMSO (PISA); higher = thermal stabilisation; K562 cells, 10 uM, 30 min; active = over 0.2 and 3.5 SD of the protein, either way, in both replicates (recomputed)
[1] = compound: CN1CCN(CCOc2cc(OC3CCOCC3)c3c(Nc4c(Cl)ccc5c4OCO5)ncnc3c2)CC1 [saracatinib]
Method in brief: (§1)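 Thermal stability values are relative to control samples and come from duplicates. They are expressed as log2 fold changes. For measurement, K562 cells (2×10^6 cells/mL) received 10 μM compound for 30 min, and aliquots were heated for 3 min over 48°C-58°C, pooled, and extracted at 4°C in PBS with 0.5% NP-40. Soluble protein, the supernatant after 21,000xg for 90 min, was quantified by TMTpro 16plex LC-MS/MS with equalised channel sums.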

Sequences of proteins named here, by UniProt entry; tags and fusion partners are left off. A change or cut given only in a name is not applied to a line headed by its entry.
UniProt O95817, whole entry, looked up: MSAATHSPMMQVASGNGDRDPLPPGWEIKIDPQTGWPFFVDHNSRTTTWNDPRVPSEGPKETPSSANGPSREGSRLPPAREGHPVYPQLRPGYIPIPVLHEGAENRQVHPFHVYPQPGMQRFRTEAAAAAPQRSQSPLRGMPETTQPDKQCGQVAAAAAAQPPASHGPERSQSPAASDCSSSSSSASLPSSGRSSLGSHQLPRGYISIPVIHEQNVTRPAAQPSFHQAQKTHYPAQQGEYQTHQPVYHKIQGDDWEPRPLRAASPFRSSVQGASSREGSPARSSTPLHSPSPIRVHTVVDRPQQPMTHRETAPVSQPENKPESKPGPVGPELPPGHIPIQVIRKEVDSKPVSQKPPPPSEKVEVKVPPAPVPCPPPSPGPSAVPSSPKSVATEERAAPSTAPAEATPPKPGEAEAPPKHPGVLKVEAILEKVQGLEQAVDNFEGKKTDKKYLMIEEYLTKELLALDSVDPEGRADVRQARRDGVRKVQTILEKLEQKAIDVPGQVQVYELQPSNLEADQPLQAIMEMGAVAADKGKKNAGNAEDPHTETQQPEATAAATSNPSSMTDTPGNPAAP
UniProt O95861: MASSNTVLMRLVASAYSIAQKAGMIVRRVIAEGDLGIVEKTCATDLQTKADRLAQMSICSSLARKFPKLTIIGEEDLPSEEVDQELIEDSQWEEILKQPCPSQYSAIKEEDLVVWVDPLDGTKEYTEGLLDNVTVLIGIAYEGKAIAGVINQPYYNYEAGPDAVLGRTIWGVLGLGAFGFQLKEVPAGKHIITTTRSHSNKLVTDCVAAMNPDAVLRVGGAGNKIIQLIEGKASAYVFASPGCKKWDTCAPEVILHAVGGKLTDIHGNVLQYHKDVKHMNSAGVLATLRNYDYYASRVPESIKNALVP
UniProt Q6UW56: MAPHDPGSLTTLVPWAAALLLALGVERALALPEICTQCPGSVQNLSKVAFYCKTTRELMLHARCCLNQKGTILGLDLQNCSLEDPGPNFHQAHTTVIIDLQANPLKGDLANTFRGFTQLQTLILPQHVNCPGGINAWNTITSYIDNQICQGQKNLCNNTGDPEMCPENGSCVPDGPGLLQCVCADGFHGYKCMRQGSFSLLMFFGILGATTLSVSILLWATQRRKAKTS
UniProt O95816: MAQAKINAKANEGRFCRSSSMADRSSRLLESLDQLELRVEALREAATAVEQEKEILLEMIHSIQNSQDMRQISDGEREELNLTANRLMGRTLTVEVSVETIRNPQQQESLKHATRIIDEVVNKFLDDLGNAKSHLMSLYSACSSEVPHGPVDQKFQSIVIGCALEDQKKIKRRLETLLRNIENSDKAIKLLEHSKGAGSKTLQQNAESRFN
UniProt Q8TD16, whole entry, looked up: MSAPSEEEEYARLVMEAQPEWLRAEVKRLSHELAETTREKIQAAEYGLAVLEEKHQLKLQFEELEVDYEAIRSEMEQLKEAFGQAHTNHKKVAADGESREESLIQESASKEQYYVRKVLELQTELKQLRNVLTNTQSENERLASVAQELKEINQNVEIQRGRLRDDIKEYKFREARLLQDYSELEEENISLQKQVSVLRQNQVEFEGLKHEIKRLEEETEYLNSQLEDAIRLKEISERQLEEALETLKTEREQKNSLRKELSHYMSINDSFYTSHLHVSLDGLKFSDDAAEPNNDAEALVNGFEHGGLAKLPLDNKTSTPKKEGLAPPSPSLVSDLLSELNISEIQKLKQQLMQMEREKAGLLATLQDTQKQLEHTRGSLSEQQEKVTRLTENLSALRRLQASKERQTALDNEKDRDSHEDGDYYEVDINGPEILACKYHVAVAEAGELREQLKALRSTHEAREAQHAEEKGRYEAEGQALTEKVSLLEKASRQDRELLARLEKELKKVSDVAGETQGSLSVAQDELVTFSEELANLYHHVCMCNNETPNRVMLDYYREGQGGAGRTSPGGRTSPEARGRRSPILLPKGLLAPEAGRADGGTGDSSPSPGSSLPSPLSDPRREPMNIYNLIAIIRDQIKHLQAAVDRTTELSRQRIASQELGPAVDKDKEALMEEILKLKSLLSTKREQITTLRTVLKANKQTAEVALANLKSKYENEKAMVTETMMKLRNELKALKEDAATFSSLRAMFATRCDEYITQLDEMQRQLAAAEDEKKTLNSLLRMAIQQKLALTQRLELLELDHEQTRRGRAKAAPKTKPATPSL
UniProt Q16611: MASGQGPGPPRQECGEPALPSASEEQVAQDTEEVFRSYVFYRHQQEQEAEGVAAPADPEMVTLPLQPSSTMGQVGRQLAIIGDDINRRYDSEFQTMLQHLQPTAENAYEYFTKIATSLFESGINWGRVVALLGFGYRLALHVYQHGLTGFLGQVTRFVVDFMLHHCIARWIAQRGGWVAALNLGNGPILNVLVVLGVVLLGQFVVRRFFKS
UniProt O94766: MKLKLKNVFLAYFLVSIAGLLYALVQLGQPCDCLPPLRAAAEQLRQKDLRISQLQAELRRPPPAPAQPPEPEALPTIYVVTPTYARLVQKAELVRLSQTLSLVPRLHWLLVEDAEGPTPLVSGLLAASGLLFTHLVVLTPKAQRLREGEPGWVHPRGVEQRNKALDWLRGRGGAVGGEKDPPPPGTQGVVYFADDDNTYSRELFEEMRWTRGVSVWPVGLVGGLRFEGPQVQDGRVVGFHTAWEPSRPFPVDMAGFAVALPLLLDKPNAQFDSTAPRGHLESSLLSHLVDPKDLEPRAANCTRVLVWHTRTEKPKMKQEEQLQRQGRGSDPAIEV
UniProt P12694: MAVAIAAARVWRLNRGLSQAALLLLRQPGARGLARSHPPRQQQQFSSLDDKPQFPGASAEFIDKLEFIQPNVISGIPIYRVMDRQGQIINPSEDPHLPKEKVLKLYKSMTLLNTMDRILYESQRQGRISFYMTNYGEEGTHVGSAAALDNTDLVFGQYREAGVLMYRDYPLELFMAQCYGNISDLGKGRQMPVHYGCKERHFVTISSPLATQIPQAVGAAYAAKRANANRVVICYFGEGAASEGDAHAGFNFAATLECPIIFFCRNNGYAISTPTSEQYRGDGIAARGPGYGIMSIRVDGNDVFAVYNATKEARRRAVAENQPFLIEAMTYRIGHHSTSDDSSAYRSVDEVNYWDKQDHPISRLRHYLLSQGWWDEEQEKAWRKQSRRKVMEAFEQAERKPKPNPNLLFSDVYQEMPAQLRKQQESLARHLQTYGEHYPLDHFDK
UniProt Q9NY97: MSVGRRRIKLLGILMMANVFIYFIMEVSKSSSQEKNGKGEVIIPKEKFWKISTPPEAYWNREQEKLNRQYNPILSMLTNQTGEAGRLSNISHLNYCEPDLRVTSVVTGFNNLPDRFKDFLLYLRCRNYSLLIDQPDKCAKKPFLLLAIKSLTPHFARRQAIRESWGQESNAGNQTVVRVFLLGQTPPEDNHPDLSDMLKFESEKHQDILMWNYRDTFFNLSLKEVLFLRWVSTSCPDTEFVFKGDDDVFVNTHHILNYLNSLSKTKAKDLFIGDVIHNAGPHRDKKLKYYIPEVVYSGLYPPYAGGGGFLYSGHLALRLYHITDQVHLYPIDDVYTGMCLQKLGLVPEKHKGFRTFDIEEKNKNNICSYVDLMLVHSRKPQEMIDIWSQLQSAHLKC
UniProt Q96G01: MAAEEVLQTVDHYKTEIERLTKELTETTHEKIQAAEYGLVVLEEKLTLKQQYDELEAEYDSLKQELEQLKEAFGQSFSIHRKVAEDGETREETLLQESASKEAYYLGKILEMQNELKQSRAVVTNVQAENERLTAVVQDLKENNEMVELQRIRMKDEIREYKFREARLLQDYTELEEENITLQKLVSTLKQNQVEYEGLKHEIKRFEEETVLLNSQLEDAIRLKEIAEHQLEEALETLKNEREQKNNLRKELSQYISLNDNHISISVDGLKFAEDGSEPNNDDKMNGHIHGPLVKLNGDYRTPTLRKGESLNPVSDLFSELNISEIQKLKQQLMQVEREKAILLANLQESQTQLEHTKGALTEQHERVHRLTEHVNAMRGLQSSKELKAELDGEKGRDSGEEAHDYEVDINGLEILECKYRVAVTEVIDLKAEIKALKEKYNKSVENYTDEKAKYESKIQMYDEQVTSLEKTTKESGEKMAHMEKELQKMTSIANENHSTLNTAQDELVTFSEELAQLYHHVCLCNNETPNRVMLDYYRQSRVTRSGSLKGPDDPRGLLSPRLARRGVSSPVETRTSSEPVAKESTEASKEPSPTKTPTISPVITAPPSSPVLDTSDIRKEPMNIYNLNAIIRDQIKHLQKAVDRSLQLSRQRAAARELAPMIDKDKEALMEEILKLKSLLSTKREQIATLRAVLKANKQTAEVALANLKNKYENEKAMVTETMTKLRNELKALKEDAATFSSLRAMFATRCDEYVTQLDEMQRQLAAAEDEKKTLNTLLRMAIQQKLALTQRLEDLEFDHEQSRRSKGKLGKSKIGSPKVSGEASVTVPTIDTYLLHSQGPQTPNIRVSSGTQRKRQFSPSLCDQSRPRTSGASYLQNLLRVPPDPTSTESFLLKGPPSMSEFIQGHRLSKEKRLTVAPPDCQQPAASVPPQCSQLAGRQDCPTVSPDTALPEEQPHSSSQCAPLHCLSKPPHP
UniProt Q9NXR7, whole entry, looked up: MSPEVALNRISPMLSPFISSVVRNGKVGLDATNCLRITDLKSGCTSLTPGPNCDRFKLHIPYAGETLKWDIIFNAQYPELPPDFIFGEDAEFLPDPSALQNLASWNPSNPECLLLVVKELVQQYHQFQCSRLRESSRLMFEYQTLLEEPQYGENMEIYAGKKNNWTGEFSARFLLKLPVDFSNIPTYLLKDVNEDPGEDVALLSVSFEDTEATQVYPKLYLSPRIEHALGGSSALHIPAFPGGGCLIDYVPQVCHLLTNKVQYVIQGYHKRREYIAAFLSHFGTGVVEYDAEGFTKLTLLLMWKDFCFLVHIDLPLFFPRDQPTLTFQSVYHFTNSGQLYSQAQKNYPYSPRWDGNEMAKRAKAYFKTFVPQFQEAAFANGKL
UniProt O75934: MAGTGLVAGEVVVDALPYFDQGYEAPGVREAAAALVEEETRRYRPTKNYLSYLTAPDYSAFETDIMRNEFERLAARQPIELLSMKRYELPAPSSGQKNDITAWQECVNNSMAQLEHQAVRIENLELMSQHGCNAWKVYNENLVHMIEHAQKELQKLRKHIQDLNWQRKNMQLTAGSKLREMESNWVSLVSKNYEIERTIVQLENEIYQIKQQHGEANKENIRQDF
UniProt P54132: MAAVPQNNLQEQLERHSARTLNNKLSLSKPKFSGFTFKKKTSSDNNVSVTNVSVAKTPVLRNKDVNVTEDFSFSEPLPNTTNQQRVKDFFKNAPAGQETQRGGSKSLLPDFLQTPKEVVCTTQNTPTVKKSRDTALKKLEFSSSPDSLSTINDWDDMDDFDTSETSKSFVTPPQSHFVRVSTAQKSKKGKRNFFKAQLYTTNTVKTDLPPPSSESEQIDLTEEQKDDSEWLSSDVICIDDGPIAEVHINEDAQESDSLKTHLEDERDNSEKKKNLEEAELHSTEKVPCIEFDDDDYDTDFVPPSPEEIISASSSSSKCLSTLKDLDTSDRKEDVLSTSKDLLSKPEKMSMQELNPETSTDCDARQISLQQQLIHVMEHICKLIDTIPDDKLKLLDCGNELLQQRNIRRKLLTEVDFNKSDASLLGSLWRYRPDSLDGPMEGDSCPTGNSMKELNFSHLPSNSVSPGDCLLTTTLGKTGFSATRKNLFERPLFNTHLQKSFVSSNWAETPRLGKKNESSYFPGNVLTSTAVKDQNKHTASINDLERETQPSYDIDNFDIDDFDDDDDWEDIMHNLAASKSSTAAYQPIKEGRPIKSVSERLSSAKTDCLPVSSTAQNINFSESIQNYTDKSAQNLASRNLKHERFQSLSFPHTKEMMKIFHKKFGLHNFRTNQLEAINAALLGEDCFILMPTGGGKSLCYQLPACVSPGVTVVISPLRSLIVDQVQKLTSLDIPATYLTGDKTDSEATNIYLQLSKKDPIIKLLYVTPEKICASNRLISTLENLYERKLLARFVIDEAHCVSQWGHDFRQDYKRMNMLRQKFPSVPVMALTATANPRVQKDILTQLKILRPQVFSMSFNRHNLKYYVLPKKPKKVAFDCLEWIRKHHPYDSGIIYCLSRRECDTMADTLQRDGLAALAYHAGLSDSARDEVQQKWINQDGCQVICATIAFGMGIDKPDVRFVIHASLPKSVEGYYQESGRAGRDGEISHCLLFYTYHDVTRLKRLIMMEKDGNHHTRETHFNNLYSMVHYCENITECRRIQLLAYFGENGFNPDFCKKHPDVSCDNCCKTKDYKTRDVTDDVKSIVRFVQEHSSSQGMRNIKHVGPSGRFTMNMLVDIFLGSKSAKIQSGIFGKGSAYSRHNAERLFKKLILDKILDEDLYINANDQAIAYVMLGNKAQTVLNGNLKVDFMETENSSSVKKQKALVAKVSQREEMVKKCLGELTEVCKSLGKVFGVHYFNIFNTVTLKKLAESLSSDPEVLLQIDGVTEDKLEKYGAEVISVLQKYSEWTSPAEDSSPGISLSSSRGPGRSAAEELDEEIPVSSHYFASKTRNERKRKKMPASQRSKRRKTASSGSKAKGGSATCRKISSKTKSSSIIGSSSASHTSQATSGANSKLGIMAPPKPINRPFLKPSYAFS

[2] = compound: CN1CCN(c2nc(C3=C(c4c[nH]c5ccccc45)C(=O)NC3=O)c3ccccc3n2)CC1 [sotrastaurin]
Method in brief: as §1

[3] = compound: CN1CC[C@H](c2c(O)cc(O)c3c(=O)cc(-c4ccccc4Cl)oc23)[C@H](O)C1 [alvocidib]
Method in brief: as §1

[4] = compound: CN1CCc2c(c3ccccc3n2Cc2ccc(C(=O)NO)cc2)C1 [Tubastatin A]
Method in brief: as §1

[5] = compound: CNC(=O)C1=CC=CC=C1NC2=NC(=NC=C2Cl)NC3=C(C=C(C=C3)N4CCOCC4)OC
Method in brief: as §1

[6] = compound: CNC(=O)c1ccc(Nc2ncc(C(F)(F)F)c(NCc3nccnc3N(C)S(C)(=O)=O)n2)cc1 [defactinib]
Method in brief: as §1

[7] = compound: CNCc1ccc(-c2[nH]c3cc(F)cc4c3c2CCNC4=O)cc1 [rucaparib]
Method in brief: as §1

[8] = compound: CNc1nc(-c2ccc3c(N)n[nH]c3c2)cc(N2C[C@@H](C(=O)NC3CCCCC3)CC[C@H]2C)n1
Method in brief: as §1

[9] = compound: COC(=O)N[C@@H](C)CNc1nccc(-c2cn(C(C)C)nc2-c2cc(Cl)cc(NS(C)(=O)=O)c2F)n1 [encorafenib]
Method in brief: as §1

[10] = compound: COC(=O)[C@H](CCSC)NC(=O)C1=C(C=C(C=C1)NC[C@H](CS)N)C2=CC=CC=C2
Method in brief: as §1

Measured: log2 fold change

ATXN2 (UniProt Q99700)
inactive: [1] 0.008 | [2] 0.013 | [3] -0.023 | [4] -0.013 | [5] 0.015 | [6] -0.016 | [7] 0.086 | [8] -0.009 | [9] -0.011 | [10] 0.028

BRCC3 (UniProt P46736)
inactive: [1] 0.009 | [2] 0.037 | [3] 0.024 | [4] -0.077 | [5] -0.023 | [6] 0.016 | [7] 0.01 | [8] -0.013 | [9] -0.004 | [10] -0.004

BAG3 (UniProt O95817)
inactive: [1] 0.063 | [2] 0.063 | [3] 0.015 | [4] -0.003 | [5] -0.019 | [6] -0.019 | [7] 0.003 | [8] -0.052 | [9] -0.091 | [10] 0.031

BPNT1 (UniProt O95861)
inactive: [1] 0.027 | [2] 0.041 | [3] 0.006 | [4] 0.012 | [5] 0.025 | [6] -0.018 | [7] -0.033 | [8] -0.004 | [9] -0.035 | [10] 0.005

BROX (UniProt Q5VW32)
inactive: [1] -0.009 | [2] -0.089 | [3] -0.035 | [4] 0.012 | [5] 0.082 | [6] -0.06 | [7] -0.025 | [8] -0.032 | [9] 0.061 | [10] -0.031

BCS1L (UniProt Q9Y276)
inactive: [1] 0.003 | [2] 0.048 | [3] 0.005 | [4] 0.021 | [5] -0.044 | [6] 0.011 | [7] -0.016 | [8] -0.001 | [9] -0.022 | [10] 0.018

BPGM (UniProt P07738)
inactive: [1] 0.04 | [2] 0.068 | [3] 0 | [4] 0.012 | [5] -0.051 | [6] 0.007 | [7] -0.001 | [8] -0.062 | [9] -0.047 | [10] 0.003

BOD1L1 (UniProt Q8NFC6)
inactive: [1] -0.006 | [2] -0.05 | [3] 0.039 | [4] 0.003 | [5] -0.029 | [6] 0.013 | [7] 0.039 | [8] -0.021 | [9] 0.019 | [10] 0.03

B4GALT7 (UniProt Q9UBV7)
inactive: [1] -0.029 | [2] 0 | [3] 0.051 | [4] 0.038 | [5] 0.061 | [6] -0.015 | [7] 0.054 | [8] -0.097 | [9] 0.058 | [10] -0.023

ATRAID isoform 3 (UniProt Q6UW56)
inactive: [1] -0.027 | [2] 0.006 | [3] -0.02 | [4] 0.055 | [5] -0.059 | [6] 0.033 | [7] -0.029 | [8] -0.042 | [9] -0.042 | [10] 0.025

B4GALT3 (UniProt O60512)
inactive: [1] 0.201 | [2] -0.117 | [3] -0.086 | [4] -0.081 | [5] 0.066 | [6] -0.031 | [7] 0.005 | [8] -0.086 | [9] 0.007 | [10] -0.01

BAG2 (UniProt O95816)
inactive: [1] -0.013 | [2] -0.055 | [3] 0.161 | [4] 0.027 | [5] -0.032 | [6] 0.097 | [7] 0.359 | [8] 0.014 | [9] 0.077 | [10] 0.01

BCAP31 isoform 2 (UniProt P51572)
inactive: [1] 0.03 | [2] 0.039 | [3] -0.001 | [4] -0.016 | [5] -0.004 | [6] 0.002 | [7] -0.078 | [8] -0.02 | [9] -0.021 | [10] 0.01

BICD2 isoform 2 (UniProt Q8TD16)
inactive: [1] -0.035 | [2] -0.087 | [3] -0.039 | [4] 0.024 | [5] 0.023 | [6] -0.157 | [7] 0.008 | [8] 0.023 | [9] 0.022 | [10] -0.043

BAK1 (UniProt Q16611)
inactive: [1] 0.022 | [2] 0.08 | [3] -0.039 | [4] -0.079 | [5] 0.094 | [6] -0.161 | [7] -0.16 | [8] -0.116 | [9] 0.035 | [10] 0.03

B3GAT3 (UniProt O94766)
inactive: [1] 0.007 | [2] 0.012 | [3] -0.056 | [4] 0.005 | [5] -0.009 | [6] 0.138 | [7] 0.16 | [8] -0.039 | [9] 0.088 | [10] 0.023

Reprinted from the entries so far (2 entries):
BRCC3 (UniProt P46736)
inactive: [1] 0.009 | [2] 0.037 | [3] 0.024 | [4] -0.077 | [5] -0.023 | [6] 0.016 | [7] 0.01 | [8] -0.013 | [9] -0.004 | [10] -0.004

BAG3 (UniProt O95817)
inactive: [1] 0.063 | [2] 0.063 | [3] 0.015 | [4] -0.003 | [5] -0.019 | [6] -0.019 | [7] 0.003 | [8] -0.052 | [9] -0.091 | [10] 0.031

Later entries.

BNIP2 (UniProt J3KN59)
inactive: [1] 0.033 | [2] 0.042 | [3] -0.174 | [4] -0.04 | [5] -0.055 | [6] -0.025 | [7] 0.033 | [8] -0.101 | [9] -0.008 | [10] 0.014

BCKDHA (UniProt P12694)
inactive: [1] 0.024 | [2] 0.003 | [3] -0.026 | [4] 0.021 | [5] -0.007 | [6] -0.11 | [7] -0.009 | [8] 0.032 | [9] -0.086 | [10] -0.028

B3GNT2 (UniProt Q9NY97)
inactive: [1] -0.007 | [2] -0.099 | [3] -0.074 | [4] 0.118 | [5] -0.08 | [6] -0.019 | [7] 0.034 | [8] 0.009 | [9] 0.102 | [10] 0.027

BICD1 (UniProt Q96G01)
inactive: [1] -0.11 | [2] -0.045 | [3] -0.099 | [4] 0.05 | [5] 0.076 | [6] -0.036 | [7] -0.038 | [8] -0.025 | [9] 0.006 | [10] 0.017

BAX isoform 2 (UniProt Q07812)
inactive: [1] 0.045 | [2] 0.003 | [3] 0.05 | [4] -0.033 | [5] 0.01 | [6] -0.014 | [7] -0.042 | [8] -0.051 | [9] -0.006 | [10] 0.03

BAG4 (UniProt O95429)
inactive: [1] 0.009 | [2] 0.015 | [3] -0.109 | [4] -0.04 | [5] -0.021 | [6] -0.112 | [7] 0.013 | [8] -0.018 | [9] 0.034 | [10] -0.011

BABAM2 (UniProt Q9NXR7)
inactive: [1] 0.074 | [2] -0.007 | [3] 0.009 | [4] -0.108 | [5] -0.027 | [6] -0.019 | [7] 0.083 | [8] -0.038 | [9] -0.026 | [10] 0.042

BCL2L2 isoform 2 (UniProt Q92843)
inactive: [1] 0.034 | [2] 0.023 | [3] 0.14 | [4] 0.04 | [5] 0.037 | [6] 0.238 | [7] 0.1 | [8] -0.071 | [9] -0.034 | [10] -0.033

BORCS5 (UniProt Q969J3)
inactive: [1] 0.027 | [2] 0.005 | [3] -0.067 | [4] -0.051 | [5] -0.04 | [6] 0.074 | [7] 0.079 | [8] -0.065 | [9] -0.021 | [10] 0.115

ATRIP (UniProt Q8WXE1)
inactive: [1] -0.041 | [2] -0.04 | [3] -0.169 | [4] -0.033 | [5] -0.034 | [6] 0.053 | [7] -0.096 | [8] -0.037 | [9] 0.006 | [10] -0.065

BCAS2 (UniProt O75934)
inactive: [1] 0.128 | [2] -0.09 | [3] -0.011 | [4] 0.007 | [5] -0.008 | [6] 0 | [7] 0.062 | [8] 0.047 | [9] -0.032 | [10] 0.012

BLM (UniProt P54132)
inactive: [1] 0.068 | [2] -0.038 | [3] -0.042 | [4] -0.019 | [5] 0.071 | [6] -0.035 | [7] -0.033 | [8] -0.01 | [9] 0.054 | [10] -0.009

B3GLCT (UniProt Q6Y288)
inactive: [1] -0.013 | [2] -0.025 | [3] -0.002 | [4] 0.018 | [5] 0.028 | [6] 0.024 | [7] 0.098 | [8] 0.033 | [9] -0.089 | [10] -0.018
